The campaign covered roughly 320,000 compounds. About 22,000 (6.9%) were called active. The shares of active, inactive and inconclusive entries below differ from those in the screen. The call rests on the fitted dose curve; in most records, active means well fitted inhibition curve with a large enough effect; inconclusive means small, poorly fitted or top-dose-only effect, or another doubt; inactive means no such curve, though single readings can be large or run the other way. Potencies of inconclusive entries are doubtful fits and often do not repeat.
Assay: Primary qHTS for delayed death inhibitors of the malarial parasite plastid, 96 hour incubation
Details: P. falciparum luciferase reporter growth; series mostly up to 28.7 µM
In short: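 Infected RBCs, 2% Hct / 0.05% parasitemia final; luciferase-reporter P. falciparum; cpd 96 h, 37 C, 5% CO2; luciferase detection reagent; luminescence.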
On the % scale 0 is the no-effect control and ±100 the full control effect; potency means the concentration at half of the fitted maximal effect.

SMILES | Potency | activity change, negative = inhibition
CCc1ccc(CN(C)CC(=O)Nc2ccccc2[N+](=O)[O-])cc1 | inconclusive: 9.28 µM [inhibitor, partial curve] | 
Cc1cccc(NC(=O)C2CC(O)CN2C(=O)OCc2ccccc2)c1 (stereo not drawn) | inconclusive: 4.15 µM [inhibitor, partial curve, poor fit] | 
COCCN1CC(C(=O)NCc2ccccc2-n2ccnc2C)CCC1=O (stereo not drawn) | inactive | 
CC1Sc2ccc(S(=O)(=O)N3CCC(C(=O)NCc4ccccc4)CC3)cc2NC1=O (stereo not drawn) | active: 1.04 µM | 
O=C(NCC(=O)N1CCN(c2ccccc2)CC1)c1ccco1 | inconclusive: 18.5 µM [inhibitor, single point] | 
O=C1C2C3C=CC(C3)C2C(=O)N1CCN1CCN(S(=O)(=O)/C=C/c2ccccc2)CC1 (stereo not drawn) | active: 5.86 µM | 
O=C(NC(CC(=O)N1CCN(c2ccccc2)CC1)c1ccccc1)c1ccccc1Cl (stereo not drawn) | inconclusive: 18.5 µM [inhibitor, single point] | 
O=C(CCl)N(Cc1cc(=O)[nH]c2ccccc12)c1ccccc1 | active: 10.4 µM | 
CCc1cc(=O)oc2cc(C)cc(OCC(=O)NCc3ccccn3)c12 | inconclusive: 18.5 µM [inhibitor, single point] | 
CCN(CC)CCCN1C(=O)C(O)=C(C(=O)c2sc(C)nc2C)C1c1ccc(C)o1 (stereo not drawn) |  | inactive: 12.1% [at 5.75 µM]
CCC(=O)N1CCN(c2ccc(NC(=O)c3ccccc3)cc2)CC1 | inactive | 
COc1ccc(OC)c(S(=O)(=O)N2CCCC(C(=O)NCc3ccco3)C2)c1 (stereo not drawn) | inactive | 
Cc1ccc(-c2[nH]ncc2/C=N/n2c(COc3ccccc3C)nc3ccccc3c2=O)cc1 | inconclusive: 11.7 µM [inhibitor, single point] | 
O=C1CC(NCc2ccccc2F)C(=O)N1c1ccccc1 (stereo not drawn) | inconclusive: 11.7 µM [inhibitor, partial curve, poor fit] | 
CC(C)(C)NC(=O)NC(=O)CN1CCN(C(c2ccccc2)c2ccccc2)CC1 | inconclusive: 0.465 µM [inhibitor, full curve, poor fit] | 
COc1ccc(CCNC(=O)C(=O)NCC2OCCN2S(=O)(=O)c2ccc(Br)cc2)cc1 (stereo not drawn) | inconclusive: 13.1 µM [inhibitor, partial curve, poor fit] | 
COc1cc(NS(=O)(=O)c2ccc(NC(=O)COc3ccc(C)cc3C)cc2)nc(OC)n1 | inactive | 
Oc1[nH]c2ccccc2c1OCc1ccncc1 | inconclusive: 6.57 µM [inhibitor, partial curve, poor fit] | 
CCOC(=O)CSc1c(-c2ccccc2)c2cc(Cl)ccc2[nH]c1=O | inconclusive: 18.5 µM [inhibitor, single point] | 
O=C(N/N=C/c1cccnc1)/C(=C\c1cccs1)NC(=O)c1ccccc1 | inconclusive: 18.5 µM [inhibitor, single point] | 
COc1ccc2c(C(=O)CCl)c[nH]c2c1 | inconclusive: 16.5 µM [inhibitor, partial curve, poor fit] | 
O=C(O)c1ccnc(SCC(=O)c2ccccc2)c1 | inactive | 
CCCn1c(=N)n(CC(O)c2ccco2)c2ccccc21 (stereo not drawn) | inactive | 

SMILES | Potency | activity change, negative = inhibition
O=C(N/N=C1/C(=O)c2cccc3cccc1c23)c1ccc(Cl)cc1 | inconclusive: 20.8 µM [inhibitor, single point] | 
Oc1cccc(/C=N/NC(=S)NCCN2CCOCC2)c1O | inconclusive: 0.329 µM [inhibitor, full curve, poor fit] | 
Nc1nonc1-c1noc(CCCCCN2C(=O)c3ccccc3C2=O)n1 | active: 13.1 µM | 
CCCC(=O)C1=C(O)C(C(=O)OC)C(C)(C)CC1=NCCCCCC(=O)O (stereo not drawn) | inconclusive: 11.7 µM [inhibitor, single point] | 
CSc1cccc(CN2CCN(Cc3ccc(F)c(F)c3)C(CCO)C2)c1 (stereo not drawn) | inconclusive: 9.28 µM [inhibitor, single point] | 
CCc1nc2c(n1O)CCc1nonc1-2 | inconclusive: 11.7 µM [inhibitor, single point] | 
O=C(O)c1ccc(N2C(=O)CC(N3C(=O)/C(=C/c4ccc(Cl)cc4)SC3=S)C2=O)cc1 (stereo not drawn) | inactive | 
COC(=O)c1ccc2c(=O)n(CCCCCC(=O)NCc3ccc4c(c3)OCO4)c(=O)[nH]c2c1 | inconclusive: 10.4 µM [inhibitor, partial curve, poor fit] | 
O=C(Nc1ccc(F)cc1)c1cccc(N2C(=O)C3C4CCC(C4)C3C2=O)c1 (stereo not drawn) | inactive | 
Cc1cc2n(n1)C(c1ccc(N(C)C)cc1)Nc1ccccc1-2 (stereo not drawn) | inactive | 
COc1ccccc1N1CCN(CC(=O)Nc2ccc(Cl)c(C(F)(F)F)c2)CC1 | inconclusive: 18.5 µM [inhibitor, single point] | 
O=C(CN1C(=O)NC2(CCCCCC2)C1=O)N1CCN(c2ccccc2)CC1 | inconclusive: 10.4 µM [inhibitor, single point] | 
NS(=O)(=O)c1ccc(NC(=O)c2ccc(S(=O)(=O)N3CCc4ccccc43)cc2)cc1 | inconclusive: 0.104 µM [inhibitor, full curve, poor fit] | 
Cc1ccc(C(=O)N/C(=C\c2ccc(-c3cccc([N+](=O)[O-])c3)o2)C(=O)NCCCN(C)C)cc1 | inconclusive: 10.4 µM [inhibitor, single point] | 
O=C(CN1CCC(NC(=O)Nc2ccccc2)CC1)Nc1ccccc1F | inconclusive: 9.28 µM [inhibitor, single point] | 
CCN1CCN(c2cc(C)c3cc(NC(=S)N4CCC5(CC4)OCCO5)ccc3n2)CC1 | inconclusive: 18.5 µM [inhibitor, single point] | 
COC(=O)Cc1ccc(N(Cc2ccccc2F)S(=O)(=O)c2ccc(C)cc2)cc1 | inconclusive: 10.4 µM [inhibitor, single point] | 
COCCN(C)C(=O)CC1C(=O)NCCN1CC(c1ccccc1)c1ccccc1 (stereo not drawn) | inconclusive: 18.5 µM [inhibitor, single point] | 
CCN1CCN(c2nnc(-c3ccc(F)cc3)c3ccccc23)CC1 | inactive | 
CCCc1cc(=O)oc2cc(OCC(=O)NC3CCN(Cc4ccccc4)CC3)ccc12 | inconclusive: 18.5 µM [inhibitor, single point] | 
CN(C)c1cc(Nc2ccc(O)cc2)c([N+](=O)[O-])c2nonc12 | inactive | 
COc1ccc(N2CCN(C(=O)CCS(=O)(=O)c3ccc4c(c3)CCN4C(=O)C3CC3)CC2)cc1 | inconclusive: 3.29 µM [inhibitor, full curve] | 
O=C(c1cccc(COc2cccc3ccccc23)c1)N1CCCC1 | inactive | 

Ordered by SMILES length (descending): 13 of the compounds above.
SMILES | Potency | activity change, negative = inhibition
O=C(O)c1ccc(N2C(=O)CC(N3C(=O)/C(=C/c4ccc(Cl)cc4)SC3=S)C2=O)cc1 (stereo not drawn) | inactive | 
COc1cc(NS(=O)(=O)c2ccc(NC(=O)COc3ccc(C)cc3C)cc2)nc(OC)n1 | inactive | 
CC1Sc2ccc(S(=O)(=O)N3CCC(C(=O)NCc4ccccc4)CC3)cc2NC1=O (stereo not drawn) | active: 1.04 µM | 
O=C(NC(CC(=O)N1CCN(c2ccccc2)CC1)c1ccccc1)c1ccccc1Cl (stereo not drawn) | inconclusive: 18.5 µM [inhibitor, single point] | 
COc1ccccc1N1CCN(CC(=O)Nc2ccc(Cl)c(C(F)(F)F)c2)CC1 | inconclusive: 18.5 µM [inhibitor, single point] | 
CSc1cccc(CN2CCN(Cc3ccc(F)c(F)c3)C(CCO)C2)c1 (stereo not drawn) | inconclusive: 9.28 µM [inhibitor, single point] | 
CCc1cc(=O)oc2cc(C)cc(OCC(=O)NCc3ccccn3)c12 | inconclusive: 18.5 µM [inhibitor, single point] | 
Cc1cc2n(n1)C(c1ccc(N(C)C)cc1)Nc1ccccc1-2 (stereo not drawn) | inactive | 
O=C(c1cccc(COc2cccc3ccccc23)c1)N1CCCC1 | inactive | 
O=C(NCC(=O)N1CCN(c2ccccc2)CC1)c1ccco1 | inconclusive: 18.5 µM [inhibitor, single point] | 
O=C1CC(NCc2ccccc2F)C(=O)N1c1ccccc1 (stereo not drawn) | inconclusive: 11.7 µM [inhibitor, partial curve, poor fit] | 
O=C(O)c1ccnc(SCC(=O)c2ccccc2)c1 | inactive | 
Oc1[nH]c2ccccc2c1OCc1ccncc1 | inconclusive: 6.57 µM [inhibitor, partial curve, poor fit] | 

Continuation:

SMILES | Potency | activity change, negative = inhibition
Cc1ccc2nc(C3CCN(CC(=O)N4CCCCCC4)CC3)[nH]c2c1 | inconclusive: 9.28 µM [inhibitor, partial curve] | 
Cc1cc(C)n(-c2ccc(OCC(=O)O)nn2)n1 | inconclusive: 3.7 µM [inhibitor, partial curve, poor fit] | 
O=C(COC(=O)c1cc([N+](=O)[O-])ccc1Cl)NCCc1ccccc1 | inconclusive: 4.15 µM [inhibitor, single point] | 
CC1(C)CN=c2s/c(=C\c3ccc(Cl)cc3)c(=O)n2C1 | inconclusive: 3.29 µM [inhibitor, partial curve, poor fit] | 
Cc1ccc(-n2c(O)c(C=NCc3ccco3)c(=O)[nH]c2=S)cc1C | inactive | 
COc1ccc(Cl)cc1NC(=O)c1cccc(N2C(=O)C3CC=CCC3C2=O)c1 (stereo not drawn) | inconclusive: 0.928 µM [inhibitor, full curve, poor fit] | 
O=C(Cn1c2ccccc2c2nc3n(c(=O)c21)CCCS3)Nc1ccccc1 | inconclusive: 29.4 µM [inhibitor, partial curve, poor fit] | 
O=C(Nc1ccc(C2=NCCN2)cc1)c1ccc(C(=O)Nc2ccc(C3=NCCN3)cc2)c([N+](=O)[O-])c1 | active: 0.147 µM | 
O=[N+]([O-])c1c(Nc2ccccc2)ccc2nonc12 | inconclusive: 10.4 µM [inhibitor, single point] | 
COc1cc(Cl)c(CN2CCC(CO)(CCOc3ccccc3)CC2)cc1OC | inconclusive: 16.5 µM [inhibitor, single point] | 
NS(=O)(=O)c1ccc(CCNC(=O)c2cc(-c3cccs3)nc3ccccc23)cc1 | inconclusive: 5.22 µM [inhibitor, partial curve] | 
COc1ccccc1CN1CCNC(=O)C1CC(=O)NCc1cn(C)nc1C (stereo not drawn) | inactive | 
O=C1C(=O)N(CNc2cccnc2)c2ccccc21 | inactive | 
CCn1c(O)c(C=Nc2ccc(S(N)(=O)=O)cc2)c(=O)[nH]c1=S | inactive | 
CCOC(=O)N1CCC(=NNc2nc(C)cc(=O)[nH]2)CC1 | inconclusive: 0.0738 µM [inhibitor, full curve, poor fit] | 
O=[N+]([O-])c1ccc(N2CCN(S(=O)(=O)c3ccccc3)CC2)cc1NCc1ccco1 | active: 13.1 µM | 
CN(C(=O)c1ccc(C#N)cc1)c1nnc(-c2cnccn2)s1 | inactive | 
Cn1c(=O)n(Cc2ccccc2)c(=O)c2c1nc1n2CCN1Cc1ccco1 | inconclusive: 18.5 µM [inhibitor, single point] | 
CC(CC(=O)NCc1ccc(F)cc1)c1ccccc1 (stereo not drawn) | inactive | 
COc1cccc(C(=O)Nc2cc(C(=O)NCc3ccc(C)cc3)ccc2N2CCC3(CC2)CC(c2ccccc2)=NO3)c1 | active: 1.31 µM | 
COc1ccc(-c2cc(C(F)(F)F)nc(-n3cc(Cl)cn3)n2)cc1 | inconclusive: 18.5 µM [inhibitor, single point] | 
